# According to patent publication US6534035B1, “Methods of inhibiting clot formation” (President and Fellows of Harvard College, priority 1998, dated 2003):
# At least one compound was matched to its structure with a doubt left. Peptide text beside a SMILES is read from it. * marks the point of attachment. Biotin = O=C1N[C@H]2[C@H](CS[C@H]2CCCCC(=O)*)N1
# Biological target: T1, FXIIIa (Homo sapiens, UniProt P00488)
# T1 construct: purchased American Diagnostica
# T1 sequence (P00488 39-732 limits assumed): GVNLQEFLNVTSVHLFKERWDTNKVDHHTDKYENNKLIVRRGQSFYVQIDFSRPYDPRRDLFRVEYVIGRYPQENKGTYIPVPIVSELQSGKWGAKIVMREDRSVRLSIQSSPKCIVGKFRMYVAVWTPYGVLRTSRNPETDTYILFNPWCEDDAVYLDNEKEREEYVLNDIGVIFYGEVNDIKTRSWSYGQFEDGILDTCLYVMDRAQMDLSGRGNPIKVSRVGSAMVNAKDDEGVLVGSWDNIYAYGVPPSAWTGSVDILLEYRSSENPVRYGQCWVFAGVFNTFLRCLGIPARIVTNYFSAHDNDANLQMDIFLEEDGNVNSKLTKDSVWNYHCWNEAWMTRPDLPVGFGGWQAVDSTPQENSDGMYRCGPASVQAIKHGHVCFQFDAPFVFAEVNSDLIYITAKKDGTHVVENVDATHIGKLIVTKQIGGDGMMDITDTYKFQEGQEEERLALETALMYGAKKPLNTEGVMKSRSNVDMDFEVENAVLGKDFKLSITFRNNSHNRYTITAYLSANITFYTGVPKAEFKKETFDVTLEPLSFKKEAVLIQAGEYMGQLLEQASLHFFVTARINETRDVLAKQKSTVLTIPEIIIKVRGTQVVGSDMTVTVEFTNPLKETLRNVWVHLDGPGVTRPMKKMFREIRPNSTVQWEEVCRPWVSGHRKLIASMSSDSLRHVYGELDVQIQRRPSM
# Test: Dose-dependent crosslinking of α2AP13-24 into fibrin clots
# Assay type: biochemical
# Conditions: read-out: concentration reaching half of maximum crosslinking
# Experimental: Experiments were performed to determine how long FXIIIa in clots could crosslink various substrates such as human ^125I -α2AP, α2AP13-24 (SEQ ID NO:2), and 5-(biotinamido)pentylamine, into fibrin. In a typical experiment, clots were prepared (50 μl final volume) in duplicate by combining fibrinogen (2 mg/ml final), CaCl2 (2 mM final), buffer (Tris-buffered saline pH 7.4) and thrombin (1 U/ml) and incubating at 37° C. Synchronous with the addition of thrombin, or up to 240 minutes afterwards, the FXIIIa substrates 5-(biotinamido)pentylamine (0.5 mM final), ^125I -α2AP (70 μg/ml final), and α2AP13-24 (0 to 1 mM final) were mixed and added to the clot. […] Crosslinked ^125I-α2AP was detected and quantitated by phosphorimaging. Samples containing crosslinked α2AP13-24 and pentylamine substrates were electroblotted to PVDF membranes and detected by ^125I-streptavidin followed by phosphorimaging or by streptavidin-peroxidase followed by the developing agents 5-bromo-4-chloro-3-indolyl phosphate-nitro blue tetrazolium using methods known in the art. In experiments examining the effect of specific amino acid residues on the crosslinking of the α2AP13-24 peptide (SEQ ID NO:2) to fibrin, crosslinking was detected by immunoblotting with an anti-peptide antibody directed against this epitope followed by ^125I-protein A and phosphorimaging. […]
structure (smiles),measurement,value
"CC(C)C[C@H](NC(=O)[C@H](CC(C)C)NC(=O)[C@@H](NC(=O)[C@H](CC(C)C)NC(=O)[C@@H]1CCCN1C(=O)[C@H](CO)NC(=O)[C@@H](NC(=O)[C@H](CCC(N)=O)NC(=O)[C@H](CCC(=O)O)NC(=O)[C@H](CCC(N)=O)NC(=O)[C@@H](N)CC(N)=O)C(C)C)[C@@H](C)O)C(=O)N[C@@H](CCCCNC(=O)CCCC[C@@H]1SC[C@@H]2NC(=O)N[C@@H]21)C(=O)O [α2AP13-24, NQEQVSPLTLLK] (H-NQEQVSPLTLLK(Biotin)-OH)",EC50,110 µM
